The subject of the test is HEK293A TEAD-LUC reporter. Briefly: TEAD-luciferase reporter activity (YAP activation), robust Z score vs plate; higher = stronger YAP/TEAD activation. Particulars: 24 h.

Structures are written as SMILES. Counter-ions that a name gives are not always drawn. The list shows a part of the results. Repeats in this data set agree poorly, so a single value says little.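 In a drug-repurposing library screen, luminescence reads luciferase driven by eight TEAD-binding elements, stably integrated into human kidney-derived cells. Compounds scoring over five robust Z scores above the plate mean are called hits.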

We go through 28 compounds from the supplement of paper PMC10735217.

As for `O=C(NC1CCN(c2nc3ncccc3o2)C1)C1CCCC1` (configuration not stated), the TEAD-luciferase reporter activity is inactive: 2 (compound concentration: 200 nM) and inactive: 2.4 (compound concentration: 10 uM).

Take `CC[C@H](C)[C@H](NC(=O)[C@H](CCC(=O)O)NC(=O)[C@H](CO)NC(=O)[C@@H](NC(=O)[C@@H](N)CO)C(C)C)C(=O)N[C@@H](CCC(N)=O)C(=O)N[C@@H](CC(C)C)C(=O)N[C@@H](CCSC)C(=O)N[C@@H](Cc1c[nH]cn1)C(=O)N[C@@H](CC(N)=O)C(=O)N[C@@H](CC(C)C)C(=O)NCC(=O)N[C@@H](CCCCN)C(=O)N[C@@H](Cc1c[nH]cn1)C(=O)N[C@@H](CC(C)C)C(=O)N[C@@H](CC(N)=O)C(=O)N[C@@H](CO)C(=O)N[C@@H](CCSC)C(=O)N[C@@H](CCC(=O)O)C(=O)N[C@@H](CCCNC(=N)N)C(=O)N[C@H](C(=O)N[C@@H](CCC(=O)O)C(=O)N[C@@H](Cc1c[nH]c2ccccc12)C(=O)N[C@@H](CC(C)C)C(=O)N[C@@H](CCCNC(=N)N)C(=O)N[C@@H](CCCCN)C(=O)N[C@@H](CCCCN)C(=O)N[C@@H](CC(C)C)C(=O)N[C@@H](CCC(N)=O)C(=O)N[C@@H](CC(=O)O)C(=O)N[C@H](C(=O)N[C@@H](Cc1c[nH]cn1)C(=O)N[C@@H](CC(N)=O)C(=O)N[C@@H](Cc1ccccc1)C(=O)O)C(C)C)C(C)C` [Teriparatide]: the TEAD-luciferase reporter activity (compound concentration: 200 nM) was inactive: -1.02, the TEAD-luciferase reporter activity (compound concentration: 2 uM) was inactive: 0.611 and the TEAD-luciferase reporter activity (compound concentration: 10 uM) is inactive: 0.622.

Turning to `CC[C@H](C)[C@H](NC(=O)[C@H](CO)NC(=O)[C@H](CO)NC(=O)[C@H](CC(C)C)NC(=O)[C@H](CCCCN)NC(=O)[C@H](CCCNC(=N)N)NC(=O)[C@H](CCCNC(=N)N)NC(=O)[C@H](CCCNC(=N)N)NC(=O)[C@H](CCC(N)=O)NC(=O)[C@H](CCCNC(=N)N)NC(=O)[C@H](CCCNC(=N)N)NC(=O)[C@H](CCCCN)NC(=O)[C@H](CCCCN)NC(=O)[C@H](CCCNC(=N)N)NC(=O)CNC(=O)[C@@H](N)Cc1ccc(O)cc1)C(=O)N[C@@H](CCC(=O)O)C(=O)N[C@@H](CO)C(=O)N[C@@H](CC(=O)O)C(=O)N[C@H](C(=O)O)C(C)C`, the TEAD-luciferase reporter activity by setting is: (compound concentration: 200 nM) inactive: 1.6; (compound concentration: 2 uM) inactive: 0.123; (compound concentration: 10 uM) inactive: 3.92.

With `Clc1cccc(C(c2ccc3nc[nH]c3c2)n2ccnc2)c1` (configuration not stated) [liarozole], the TEAD-luciferase reporter activity was inactive: -0.478 (compound concentration: 200 nM), inactive: -1.37 (compound concentration: 2 uM) and inactive: 0.89 (compound concentration: 10 uM).

Turning to `CN1CCN(C2=Nc3cc(Cl)ccc3Nc3ccccc32)CC1`, the TEAD-luciferase reporter activity (compound concentration: 200 nM) is inactive: 1.13 and the TEAD-luciferase reporter activity (compound concentration: 10 uM) is inactive: -1.35.

`CN1CCN(C2=Nc3cc(Cl)ccc3Nc3ccccc32)CC1` [clozapine]: the TEAD-luciferase reporter activity (compound concentration: 2 uM) is inactive: -1.62.

In the case of `CC(C)(CN1CCN(C2=Nc3ccccc3Oc3ccccc32)CC1)C(=O)O`, the TEAD-luciferase reporter activity is inactive: -2.21 (compound concentration: 200 nM), inactive: -0.29 (compound concentration: 2 uM) and inactive: 1.42 (compound concentration: 10 uM).

In the case of `Nc1cc(COc2c(Cl)cc(C[C@H](N)C(=O)O)cc2Cl)c2oc(-c3ccccc3)nc2c1`, the TEAD-luciferase reporter activity is inactive: 0.525 (compound concentration: 200 nM) and inactive: 1.08 (compound concentration: 10 uM).

Take `Nc1cc(COc2c(Cl)cc(C[C@H](N)C(=O)O)cc2Cl)c2oc(-c3ccccc3)nc2c1` [KYT-0353_:_ JPH203 free base]: the TEAD-luciferase reporter activity (compound concentration: 2 uM) was inactive: 0.941.

Consider `CC(C)(C)NCC(O)COc1cccc2c1C[C@H](O)[C@H](O)C2` (some centres not stated) [nadolol, BMS], for which the TEAD-luciferase reporter activity (compound concentration: 2 uM) was inactive: 0.218.

In the case of `CC(C)(C)NCC(O)COc1cccc2c1C[C@H](O)[C@H](O)C2` (some centres not stated), the TEAD-luciferase reporter activity was inactive: -0.327 (compound concentration: 200 nM) and inactive: -0.0304 (compound concentration: 10 uM).

For the compound `COC1(c2cc(F)cc(OCc3ccc4c(ccc(=O)n4C)c3)c2)CCOCC1`, the TEAD-luciferase reporter activity is inactive: -1.05 (compound concentration: 200 nM), inactive: 0.284 (compound concentration: 2 uM) and inactive: -0.546 (compound concentration: 10 uM).

With `CC(=O)N(O)C/C=C/c1cccc(Oc2ccccc2)c1`, the TEAD-luciferase reporter activity is, setting by setting: (compound concentration: 200 nM) inactive: 1.07; (compound concentration: 2 uM) inactive: -1.37; (compound concentration: 10 uM) inactive: 1.17.

With `NCCC(O)(P(=O)([O-])O)P(=O)([O-])O` [pamidronate, Samchundang], the TEAD-luciferase reporter activity (compound concentration: 2 uM) is inactive: -0.0446.

Consider `NCCC(O)(P(=O)([O-])O)P(=O)([O-])O` [Pamidronate Disodium], for which the TEAD-luciferase reporter activity is, setting by setting: (compound concentration: 200 nM) inactive: 0.00745; (compound concentration: 10 uM) inactive: 4.1.

For `CC(=O)SCC(Cc1ccc2c(c1)OCO2)C(=O)N[C@@H](C)C(=O)O` (some centres not stated), the TEAD-luciferase reporter activity reads like this: (compound concentration: 200 nM) inactive: 2.23; (compound concentration: 2 uM) inactive: -0.223; (compound concentration: 10 uM) inactive: 1.46.

Take `CN(C)CC1CCCN1C(=O)/C=C/c1ccc(C(F)(F)F)cc1` (configuration not stated): the TEAD-luciferase reporter activity is inactive: 0.582 (compound concentration: 200 nM), inactive: -0.606 (compound concentration: 2 uM) and inactive: -1.74 (compound concentration: 10 uM).

With `C=C(C)[C@@H]1CC[C@]2(C(=O)O)CC[C@]3(C)[C@H](CC[C@@H]4[C@@]5(C)CC[C@H](O)C(C)(C)[C@@H]5CC[C@]43C)[C@@H]12` [betulinic acid, Dabur], the TEAD-luciferase reporter activity reads like this: (compound concentration: 200 nM) inactive: -1.95; (compound concentration: 10 uM) inactive: 0.837.

In the case of `C=C(C)[C@@H]1CC[C@]2(C(=O)O)CC[C@]3(C)[C@H](CC[C@@H]4[C@@]5(C)CC[C@H](O)C(C)(C)[C@@H]5CC[C@]43C)[C@@H]12` [betulinic acid], the TEAD-luciferase reporter activity (compound concentration: 2 uM) was inactive: 0.685.

Regarding `Cc1ccc(-c2ccc(C)cn2)nc1` [Abametapir], the TEAD-luciferase reporter activity was inactive: -0.667 (compound concentration: 200 nM), inactive: 0.677 (compound concentration: 2 uM) and inactive: -0.407 (compound concentration: 10 uM).

Turning to `Cn1c(=O)c2c(ncn2C)n(C)c1=O`, the TEAD-luciferase reporter activity (compound concentration: 2 uM) was inactive: -0.777.

With `Cn1c(=O)c2c(ncn2C)n(C)c1=O` [Caffeine], the TEAD-luciferase reporter activity is, setting by setting: (compound concentration: 200 nM) inactive: -0.927; (compound concentration: 10 uM) inactive: 0.81.

As to `CN(C)CCCCCCN(C)C` [Hexadimethrine bromide], the TEAD-luciferase reporter activity is inactive: -0.566 (compound concentration: 200 nM), inactive: -0.722 (compound concentration: 2 uM) and inactive: -0.519 (compound concentration: 10 uM).

As for `CN1c2c([nH]c(N)nc2=O)NCC1CNc1ccc(C(=O)N[C@@H](CCC(=O)O)C(=O)O)cc1` (some centres not stated) [Prefolic A], the TEAD-luciferase reporter activity (compound concentration: 200 nM) was inactive: -1.03, the TEAD-luciferase reporter activity (compound concentration: 2 uM) was inactive: -1.54 and the TEAD-luciferase reporter activity (compound concentration: 10 uM) was inactive: 1.44.

Regarding `Cc1noc(NS(=O)(=O)c2ccccc2-c2ccc(-c3ncco3)cc2)c1C`, the TEAD-luciferase reporter activity by setting is: (compound concentration: 200 nM) inactive: -0.517; (compound concentration: 2 uM) inactive: 0.209; (compound concentration: 10 uM) inactive: -0.624.

Consider `C[C@H]1[C@H](NC(=O)/C(=N\OC(C)(C)C(=O)O)c2csc(N)n2)C(=O)N1S(=O)(=O)O` [aztreonam lysine, Gilead], for which the TEAD-luciferase reporter activity runs as follows: (compound concentration: 200 nM) inactive: -1.57; (compound concentration: 10 uM) inactive: -1.22.

`C[C@H]1[C@H](NC(=O)/C(=N\OC(C)(C)C(=O)O)c2csc(N)n2)C(=O)N1S(=O)(=O)O` [aztreonam lysine]: the TEAD-luciferase reporter activity (compound concentration: 2 uM) was inactive: -2.2.

In the case of `CNC[C@@H]1CC[C@@H](N)[C@@H](O[C@H]2[C@H](O)[C@@H](O[C@H]3OC[C@](C)(O)[C@H](NC)[C@H]3O)[C@H](N)C[C@@H]2N)O1` [Micronomicin sulfate], the TEAD-luciferase reporter activity by setting is: (compound concentration: 200 nM) inactive: -0.461; (compound concentration: 2 uM) inactive: 1.24; (compound concentration: 10 uM) inactive: -0.53.
